These are yes or no findings as the source states them, for the method shown. Some binding calls cover weakened binding; strength is not graded here.
Molecular target: T1, GluD1 (wild type) overexpressed in HEK293T cells (rat) (UniProt Q62640)
T1 sequence: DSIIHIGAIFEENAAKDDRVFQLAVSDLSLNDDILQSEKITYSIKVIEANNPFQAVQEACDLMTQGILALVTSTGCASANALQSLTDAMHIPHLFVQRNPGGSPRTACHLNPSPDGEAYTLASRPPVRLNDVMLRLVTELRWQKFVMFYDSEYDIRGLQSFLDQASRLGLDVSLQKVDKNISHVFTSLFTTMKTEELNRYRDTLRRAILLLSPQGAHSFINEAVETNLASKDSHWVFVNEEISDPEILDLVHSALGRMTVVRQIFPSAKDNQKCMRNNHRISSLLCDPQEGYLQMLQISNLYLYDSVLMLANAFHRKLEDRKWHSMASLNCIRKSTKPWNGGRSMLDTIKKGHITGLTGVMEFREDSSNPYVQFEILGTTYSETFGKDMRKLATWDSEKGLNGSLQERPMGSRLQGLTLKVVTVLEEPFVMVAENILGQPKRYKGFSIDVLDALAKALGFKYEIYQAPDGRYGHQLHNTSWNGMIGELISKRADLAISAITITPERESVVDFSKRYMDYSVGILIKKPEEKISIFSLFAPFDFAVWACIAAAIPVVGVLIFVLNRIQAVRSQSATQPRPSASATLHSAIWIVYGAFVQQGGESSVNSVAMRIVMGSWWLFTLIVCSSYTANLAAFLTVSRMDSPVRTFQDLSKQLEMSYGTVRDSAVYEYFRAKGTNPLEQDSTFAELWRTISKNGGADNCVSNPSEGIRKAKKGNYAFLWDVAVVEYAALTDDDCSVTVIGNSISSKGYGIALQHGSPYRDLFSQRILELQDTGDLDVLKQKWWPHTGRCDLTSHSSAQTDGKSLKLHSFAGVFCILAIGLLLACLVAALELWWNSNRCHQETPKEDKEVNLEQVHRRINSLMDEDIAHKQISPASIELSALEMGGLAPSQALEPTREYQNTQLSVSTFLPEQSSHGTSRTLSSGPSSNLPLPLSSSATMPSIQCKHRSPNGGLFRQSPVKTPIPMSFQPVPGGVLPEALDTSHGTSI
Assay: cell binding followed by immunoblotting; HEK293T cells transfected with GluD1, 48 h later D-serine (0.3 mM) or vehicle for 30 min, then recombinant Cbln1 1 ug/ml with D-serine or vehicle for 4 h; rinsed thrice with PBS, lysate on SDS-PAGE, blot with anti-His and anti-GluD1; only the binder purified

Amino acid sequences for entries named in this document (tags omitted). Residues count along the entry.
UniProt P23435, residues 22-193: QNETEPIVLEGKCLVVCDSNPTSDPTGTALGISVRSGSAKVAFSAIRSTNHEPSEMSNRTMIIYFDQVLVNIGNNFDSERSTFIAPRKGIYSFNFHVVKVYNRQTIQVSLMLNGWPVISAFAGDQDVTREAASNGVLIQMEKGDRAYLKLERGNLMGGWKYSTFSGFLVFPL

Substance: recombinant Cbln1 protein (HA- and His-tagged) (from UniProt P23435 22-193) (ligand)
- binding: binds

From PMC11785871, “D-Serine disrupts Cbln1 and GluD1 interaction and affects Cbln1-dependent synaptic effects and nocifensive responses in the central amygdala” (Cellular and Molecular Life Sciences: CMLS, 2025)
